# Results as given in publication PMC6300602.
# The chains behind the UniProt entries cited, without tags or fusion partners. Where a name states a change or a piece, a line headed by the entry shows the natural chain unless it says otherwise.
# UniProt Q12522: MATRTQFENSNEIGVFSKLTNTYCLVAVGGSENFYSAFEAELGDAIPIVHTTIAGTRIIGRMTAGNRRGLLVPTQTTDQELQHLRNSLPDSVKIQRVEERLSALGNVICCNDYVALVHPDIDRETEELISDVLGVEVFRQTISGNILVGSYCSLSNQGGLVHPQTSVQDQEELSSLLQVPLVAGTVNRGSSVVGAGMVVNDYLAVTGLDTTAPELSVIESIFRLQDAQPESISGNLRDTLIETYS
# UniProt P05748: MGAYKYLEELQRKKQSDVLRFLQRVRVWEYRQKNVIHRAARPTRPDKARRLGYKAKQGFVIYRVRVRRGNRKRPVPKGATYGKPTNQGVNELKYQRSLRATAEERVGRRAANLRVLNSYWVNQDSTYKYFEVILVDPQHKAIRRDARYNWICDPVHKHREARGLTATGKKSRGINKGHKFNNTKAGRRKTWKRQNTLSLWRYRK
# Assays:
# [1] = target: T1, Kre35-TAP (S. cerevisiae) (UniProt P53145); experiment: co-IP; Kre35-TAP retrieved with cytoplasmic pre-60S particles from yeast lysate on IgG sepharose, eluted with TEV protease, western blot; cells expressing or depleted of Mak5 (doxycycline); particle amounts normalised to Rpl15
# T1 sequence: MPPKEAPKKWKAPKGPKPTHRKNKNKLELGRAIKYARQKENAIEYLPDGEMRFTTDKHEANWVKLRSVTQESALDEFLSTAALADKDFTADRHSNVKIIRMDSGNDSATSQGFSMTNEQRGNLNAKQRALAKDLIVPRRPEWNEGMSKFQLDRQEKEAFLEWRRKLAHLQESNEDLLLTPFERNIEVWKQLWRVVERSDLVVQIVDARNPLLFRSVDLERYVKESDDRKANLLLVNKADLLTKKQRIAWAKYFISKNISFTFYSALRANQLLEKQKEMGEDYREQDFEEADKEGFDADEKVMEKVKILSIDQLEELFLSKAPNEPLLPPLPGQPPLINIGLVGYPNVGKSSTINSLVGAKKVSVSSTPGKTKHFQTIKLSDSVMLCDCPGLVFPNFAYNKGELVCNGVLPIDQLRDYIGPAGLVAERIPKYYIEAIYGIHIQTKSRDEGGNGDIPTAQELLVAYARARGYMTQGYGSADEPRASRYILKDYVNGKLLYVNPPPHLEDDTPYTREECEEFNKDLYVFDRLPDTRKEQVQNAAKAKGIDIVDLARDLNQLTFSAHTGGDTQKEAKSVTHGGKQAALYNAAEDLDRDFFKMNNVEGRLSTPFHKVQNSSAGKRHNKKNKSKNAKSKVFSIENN
# [2] = target: TAP-tagged Tif6 (S. cerevisiae) (UniProt Q12522); experiment: co-IP; Tif6-TAP retrieved with late pre-60S particles from yeast lysate on IgG sepharose, eluted with TEV protease, western blot; cells expressing (Gal) or depleted of (Glu) Spb4; particle amounts normalised to Tif6 and Rpl15
substance,measurement,setting,value
Rpl15 (from UniProt P05748),binding,[1],binds
same,binding,[2],binds

# These are yes or no findings as the source states them, for the method shown. In cells and extracts the contact can be indirect. A result given as binding can be weak or reduced; the word gives no strength.
